Structures can show the parent of a compound that is named as a salt. For at least one compound, name, drawing or mass did not settle the structure.
System: STIB 900 strain of Trypanosoma brucei rhodesiense
Experiment: T. b. r. STIB 900 mouse model
Type: in vivo
Details: 5 mg/kg ip; Table 5
Description: The activities of compounds 20, 18, 21, 48, 23c, 24c, 5, 4, and 10 against the STIB 900 strain of Trypanosoma brucei rhodesiense (T. b. r.) in a mouse model are shown in Table 3. […] Groups of four mice were infected intraperitoneally with 2×10^5 bloodstream forms of T. b. r. STIB 900 which originates from a patient in Tanzania. On days 3, 4, 5, and 6 post-infection the experimental groups were treated with the indicated compound, either by the intraperitoneal route, or for prodrugs, by the oral route. Usually the highest tolerated dose was used. The highest tolerated dose was determined in a pretoxicological experiment.
Parasitemia of the mice was checked daily up to day 14 post-infection and thereafter 2 times per week up to day 60. One group of mice was not treated and acted as control. Untreated control animals expire between day 7 and 8 post-infection. For relapsing mice, the day of death was recorded and the survival time determined. For the data shown in Table 3, cures reflect the number of mice that survive and are parasite free for 60 days. Survival reflects the average days of survival.
Testing methods are as described above in Example 17.

`N=C(N)c1ccc(-c2ccc(-c3ccc(C(=N)N)cn3)cn2)cc1` [Compound 94, Phenyl[1,2′]pyridinyl[5′,2″]pyridinyl-4,5″-bis-amidine hydrochloride salt] was tested, and the Cures was 4/4.

Reference: patent US8188121B2, “Substituted pyridines as antiparasitic AZA teraryl compounds” (The University of North Carolina at Chapel Hill, priority 2005, dated 2012)
